According to the supplement of paper PMC10849652:
The other results are listed elsewhere or left out.

Chains of the proteins cited; added tags and fusions are not shown. Lines headed by an entry give the natural chain unless they say otherwise; changes in a name come on top.
UniProt Q15057: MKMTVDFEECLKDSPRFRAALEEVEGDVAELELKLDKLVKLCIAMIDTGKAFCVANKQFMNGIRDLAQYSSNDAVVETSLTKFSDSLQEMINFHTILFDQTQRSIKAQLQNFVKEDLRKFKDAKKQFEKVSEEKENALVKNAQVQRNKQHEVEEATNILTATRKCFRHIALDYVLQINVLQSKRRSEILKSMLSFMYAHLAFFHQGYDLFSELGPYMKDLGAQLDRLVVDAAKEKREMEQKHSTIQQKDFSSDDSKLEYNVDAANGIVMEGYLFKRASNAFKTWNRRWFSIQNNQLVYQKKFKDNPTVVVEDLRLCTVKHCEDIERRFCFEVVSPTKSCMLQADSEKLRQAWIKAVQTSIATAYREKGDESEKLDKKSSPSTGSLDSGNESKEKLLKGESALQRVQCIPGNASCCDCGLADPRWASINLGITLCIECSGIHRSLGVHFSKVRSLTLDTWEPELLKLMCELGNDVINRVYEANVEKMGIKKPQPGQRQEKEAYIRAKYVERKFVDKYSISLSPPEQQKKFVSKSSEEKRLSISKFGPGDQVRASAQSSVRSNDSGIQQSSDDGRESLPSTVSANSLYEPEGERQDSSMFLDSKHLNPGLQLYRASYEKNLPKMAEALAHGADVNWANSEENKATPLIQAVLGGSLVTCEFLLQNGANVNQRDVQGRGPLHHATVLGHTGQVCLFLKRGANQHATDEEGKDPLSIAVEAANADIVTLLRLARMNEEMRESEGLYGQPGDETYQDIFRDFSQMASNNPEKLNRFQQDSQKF
UniProt Q5JTZ9, whole entry, looked up: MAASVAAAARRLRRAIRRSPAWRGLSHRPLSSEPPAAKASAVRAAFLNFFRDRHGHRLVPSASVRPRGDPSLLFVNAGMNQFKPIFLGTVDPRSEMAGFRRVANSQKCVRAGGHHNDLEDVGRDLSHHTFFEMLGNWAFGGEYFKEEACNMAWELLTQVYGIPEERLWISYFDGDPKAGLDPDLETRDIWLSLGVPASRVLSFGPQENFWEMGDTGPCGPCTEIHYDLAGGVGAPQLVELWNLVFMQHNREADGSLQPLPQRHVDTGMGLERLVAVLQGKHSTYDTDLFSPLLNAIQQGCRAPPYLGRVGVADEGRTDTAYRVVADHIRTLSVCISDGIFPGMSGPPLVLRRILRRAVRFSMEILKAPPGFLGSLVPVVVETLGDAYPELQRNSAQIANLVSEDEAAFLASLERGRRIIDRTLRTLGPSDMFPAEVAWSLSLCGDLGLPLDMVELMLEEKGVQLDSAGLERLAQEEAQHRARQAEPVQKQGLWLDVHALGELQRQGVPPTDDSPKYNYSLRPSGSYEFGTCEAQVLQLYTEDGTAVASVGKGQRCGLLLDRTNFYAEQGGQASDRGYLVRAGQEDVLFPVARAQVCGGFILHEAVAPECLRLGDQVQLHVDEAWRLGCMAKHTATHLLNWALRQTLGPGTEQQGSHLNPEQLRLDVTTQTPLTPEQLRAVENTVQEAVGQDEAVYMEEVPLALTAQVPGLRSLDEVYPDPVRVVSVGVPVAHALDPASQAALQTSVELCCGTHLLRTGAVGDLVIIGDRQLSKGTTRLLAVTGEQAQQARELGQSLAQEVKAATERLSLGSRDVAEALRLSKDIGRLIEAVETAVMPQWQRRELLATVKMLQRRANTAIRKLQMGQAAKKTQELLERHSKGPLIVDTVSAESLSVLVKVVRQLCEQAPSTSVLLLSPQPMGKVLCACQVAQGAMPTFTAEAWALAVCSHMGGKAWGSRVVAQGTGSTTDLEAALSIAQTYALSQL
UniProt Q9BWD1: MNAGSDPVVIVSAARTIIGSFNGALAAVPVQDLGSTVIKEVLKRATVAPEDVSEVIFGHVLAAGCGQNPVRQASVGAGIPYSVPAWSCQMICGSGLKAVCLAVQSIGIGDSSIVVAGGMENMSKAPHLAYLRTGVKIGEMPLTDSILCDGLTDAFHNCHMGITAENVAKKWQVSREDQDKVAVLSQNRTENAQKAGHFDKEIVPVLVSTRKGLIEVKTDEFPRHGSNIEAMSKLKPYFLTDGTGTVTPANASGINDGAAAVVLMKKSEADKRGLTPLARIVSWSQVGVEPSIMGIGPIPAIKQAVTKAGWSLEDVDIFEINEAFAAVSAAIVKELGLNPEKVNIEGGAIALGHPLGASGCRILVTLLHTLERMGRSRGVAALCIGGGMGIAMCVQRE
UniProt P42765: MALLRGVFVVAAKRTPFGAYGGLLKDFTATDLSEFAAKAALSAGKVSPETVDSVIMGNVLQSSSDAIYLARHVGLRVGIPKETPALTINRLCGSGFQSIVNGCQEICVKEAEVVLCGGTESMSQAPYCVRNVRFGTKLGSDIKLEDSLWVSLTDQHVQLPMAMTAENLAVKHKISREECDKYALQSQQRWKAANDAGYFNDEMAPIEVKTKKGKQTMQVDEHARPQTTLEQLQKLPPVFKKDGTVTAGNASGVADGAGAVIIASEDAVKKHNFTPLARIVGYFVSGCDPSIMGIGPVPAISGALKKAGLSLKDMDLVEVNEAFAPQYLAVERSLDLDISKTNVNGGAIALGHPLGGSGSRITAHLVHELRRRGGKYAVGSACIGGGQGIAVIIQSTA
UniProt P61163, whole entry, looked up: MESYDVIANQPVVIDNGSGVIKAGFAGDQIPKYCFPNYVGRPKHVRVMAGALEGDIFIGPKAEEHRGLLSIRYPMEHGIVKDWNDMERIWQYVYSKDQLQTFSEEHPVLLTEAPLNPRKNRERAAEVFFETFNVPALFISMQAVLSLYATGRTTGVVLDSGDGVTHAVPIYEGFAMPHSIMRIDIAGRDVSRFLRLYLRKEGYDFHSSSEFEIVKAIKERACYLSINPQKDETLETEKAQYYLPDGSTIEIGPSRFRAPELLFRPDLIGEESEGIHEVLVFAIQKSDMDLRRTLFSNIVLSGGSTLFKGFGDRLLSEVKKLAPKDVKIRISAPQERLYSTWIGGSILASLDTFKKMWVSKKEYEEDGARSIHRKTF
UniProt O95870: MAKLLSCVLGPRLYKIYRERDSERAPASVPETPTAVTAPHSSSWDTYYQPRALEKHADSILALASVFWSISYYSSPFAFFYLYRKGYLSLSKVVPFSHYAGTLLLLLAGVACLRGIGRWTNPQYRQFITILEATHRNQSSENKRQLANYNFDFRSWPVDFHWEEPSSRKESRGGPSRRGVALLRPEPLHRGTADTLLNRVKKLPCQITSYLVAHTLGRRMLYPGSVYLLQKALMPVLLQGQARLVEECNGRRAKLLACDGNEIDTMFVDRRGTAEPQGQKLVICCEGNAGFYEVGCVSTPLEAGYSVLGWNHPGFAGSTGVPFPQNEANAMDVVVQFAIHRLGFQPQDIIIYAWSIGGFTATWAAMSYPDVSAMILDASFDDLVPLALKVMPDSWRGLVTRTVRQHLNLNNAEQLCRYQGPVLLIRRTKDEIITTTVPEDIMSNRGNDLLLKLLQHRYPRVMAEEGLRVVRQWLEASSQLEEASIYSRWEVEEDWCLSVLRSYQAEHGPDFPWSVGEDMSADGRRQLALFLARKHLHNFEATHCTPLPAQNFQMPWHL
UniProt P00813: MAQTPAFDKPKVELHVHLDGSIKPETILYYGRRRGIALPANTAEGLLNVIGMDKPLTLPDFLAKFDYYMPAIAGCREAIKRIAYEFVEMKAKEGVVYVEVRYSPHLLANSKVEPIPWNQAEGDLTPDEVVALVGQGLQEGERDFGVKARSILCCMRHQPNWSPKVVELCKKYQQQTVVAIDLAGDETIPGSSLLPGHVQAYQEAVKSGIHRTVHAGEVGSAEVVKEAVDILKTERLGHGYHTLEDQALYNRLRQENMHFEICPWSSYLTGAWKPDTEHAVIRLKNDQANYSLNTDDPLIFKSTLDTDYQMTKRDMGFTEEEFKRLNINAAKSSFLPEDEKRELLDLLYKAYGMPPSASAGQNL
UniProt Q9NUQ8: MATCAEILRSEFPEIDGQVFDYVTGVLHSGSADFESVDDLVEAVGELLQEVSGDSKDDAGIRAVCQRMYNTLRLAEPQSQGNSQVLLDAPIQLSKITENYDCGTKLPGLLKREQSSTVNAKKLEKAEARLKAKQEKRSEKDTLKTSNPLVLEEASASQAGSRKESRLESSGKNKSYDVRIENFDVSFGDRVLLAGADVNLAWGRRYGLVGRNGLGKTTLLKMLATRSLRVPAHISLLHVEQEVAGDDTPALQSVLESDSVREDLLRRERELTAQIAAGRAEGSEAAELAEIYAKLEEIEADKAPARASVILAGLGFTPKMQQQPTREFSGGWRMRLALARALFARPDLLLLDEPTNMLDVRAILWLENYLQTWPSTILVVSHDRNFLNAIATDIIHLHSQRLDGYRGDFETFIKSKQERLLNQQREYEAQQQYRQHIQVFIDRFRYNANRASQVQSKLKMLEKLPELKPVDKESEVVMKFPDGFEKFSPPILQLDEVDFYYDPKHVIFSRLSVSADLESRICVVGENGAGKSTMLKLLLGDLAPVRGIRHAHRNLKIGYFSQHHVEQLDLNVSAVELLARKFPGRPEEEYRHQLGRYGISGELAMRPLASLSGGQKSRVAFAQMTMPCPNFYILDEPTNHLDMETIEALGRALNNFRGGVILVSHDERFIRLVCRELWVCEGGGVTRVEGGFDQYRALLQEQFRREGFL
UniProt Q5T8D3: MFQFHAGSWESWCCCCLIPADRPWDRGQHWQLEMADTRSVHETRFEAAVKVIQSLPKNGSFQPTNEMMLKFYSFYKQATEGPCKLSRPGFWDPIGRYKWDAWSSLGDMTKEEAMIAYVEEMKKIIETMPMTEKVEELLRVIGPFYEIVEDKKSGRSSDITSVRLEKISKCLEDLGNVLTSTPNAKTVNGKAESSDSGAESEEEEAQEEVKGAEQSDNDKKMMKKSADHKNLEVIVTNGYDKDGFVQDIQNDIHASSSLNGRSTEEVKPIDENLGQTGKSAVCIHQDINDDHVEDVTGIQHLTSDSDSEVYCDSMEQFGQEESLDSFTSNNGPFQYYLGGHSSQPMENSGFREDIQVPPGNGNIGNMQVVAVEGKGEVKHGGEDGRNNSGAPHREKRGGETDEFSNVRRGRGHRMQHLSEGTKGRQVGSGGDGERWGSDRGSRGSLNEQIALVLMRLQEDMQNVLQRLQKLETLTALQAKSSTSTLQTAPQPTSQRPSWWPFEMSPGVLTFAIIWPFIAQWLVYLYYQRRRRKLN
UniProt Q99798: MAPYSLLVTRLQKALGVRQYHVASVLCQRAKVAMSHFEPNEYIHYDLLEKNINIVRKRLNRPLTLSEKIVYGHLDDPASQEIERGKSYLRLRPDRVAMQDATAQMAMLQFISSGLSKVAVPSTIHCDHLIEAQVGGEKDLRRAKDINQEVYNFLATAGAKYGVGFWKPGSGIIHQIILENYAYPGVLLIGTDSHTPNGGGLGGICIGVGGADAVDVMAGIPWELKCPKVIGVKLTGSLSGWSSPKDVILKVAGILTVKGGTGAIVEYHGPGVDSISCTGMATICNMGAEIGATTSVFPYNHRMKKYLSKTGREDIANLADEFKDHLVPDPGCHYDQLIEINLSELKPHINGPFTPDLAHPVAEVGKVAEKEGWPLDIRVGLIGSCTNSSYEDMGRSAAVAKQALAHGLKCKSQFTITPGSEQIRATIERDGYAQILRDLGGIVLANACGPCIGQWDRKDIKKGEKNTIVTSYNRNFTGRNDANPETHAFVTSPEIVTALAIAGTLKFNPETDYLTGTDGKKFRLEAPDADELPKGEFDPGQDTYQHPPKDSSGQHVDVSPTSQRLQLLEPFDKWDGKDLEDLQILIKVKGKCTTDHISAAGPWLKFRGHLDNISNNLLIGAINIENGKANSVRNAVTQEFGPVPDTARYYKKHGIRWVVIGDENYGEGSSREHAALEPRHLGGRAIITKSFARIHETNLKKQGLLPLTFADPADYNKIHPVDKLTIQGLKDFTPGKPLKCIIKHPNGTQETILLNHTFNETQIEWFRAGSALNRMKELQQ
UniProt Q9BR61: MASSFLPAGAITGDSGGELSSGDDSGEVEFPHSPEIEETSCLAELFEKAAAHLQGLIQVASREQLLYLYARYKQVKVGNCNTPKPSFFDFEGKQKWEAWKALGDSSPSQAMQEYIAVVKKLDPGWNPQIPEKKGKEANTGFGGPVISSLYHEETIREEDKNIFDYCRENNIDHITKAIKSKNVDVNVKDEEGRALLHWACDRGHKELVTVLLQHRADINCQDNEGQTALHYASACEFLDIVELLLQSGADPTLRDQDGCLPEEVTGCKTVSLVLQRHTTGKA
UniProt Q6UWZ7: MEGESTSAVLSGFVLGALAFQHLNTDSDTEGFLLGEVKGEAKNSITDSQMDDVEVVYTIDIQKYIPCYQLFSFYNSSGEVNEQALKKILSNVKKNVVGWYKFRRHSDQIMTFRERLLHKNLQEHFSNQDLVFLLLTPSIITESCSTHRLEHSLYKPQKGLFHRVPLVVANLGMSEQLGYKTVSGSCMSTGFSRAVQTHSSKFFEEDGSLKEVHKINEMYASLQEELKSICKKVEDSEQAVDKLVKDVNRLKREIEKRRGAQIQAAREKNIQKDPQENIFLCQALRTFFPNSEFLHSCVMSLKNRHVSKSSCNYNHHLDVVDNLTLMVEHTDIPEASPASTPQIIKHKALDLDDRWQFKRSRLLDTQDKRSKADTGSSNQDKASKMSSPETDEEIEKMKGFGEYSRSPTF

How the values were obtained:
Assay in all cases: log2 fold change, soluble protein after heating vs DMSO (PISA); higher = thermal stabilisation; K562 cells, 10 uM, 30 min; active = over 0.2 and 3.5 SD of the protein, either way, in both replicates (recomputed)
erlotinib = compound: C#Cc1cccc(Nc2ncnc3cc(OCCOC)c(OCCOC)cc23)c1 [erlotinib]
Summary of the method: (§1)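 Soluble protein was quantified by TMTpro 16plex LC-MS/MS after channel sums were equalised. It was obtained as the supernatant after 21,000xg for 90 min from pooled aliquots of K562 cells (2×10^6 cells/mL, 10 μM compound, 30 min) heated for 3 min across 48°C-58°C and extracted in PBS with 0.5% NP-40 at 4°C. Thermal stability values are relative to control samples and come from duplicates. They are given as log2 fold changes.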

[1] = compound: C/C(=N\NC(=O)C1=CC(=CC=C1)S(=O)(=O)N2CCOCC2)/C3=C(C=CC(=C3)Cl)O
Summary of the method: as §1

[2] = compound: C1=CC(=C(C=C1Cl)C2=NC3=NC=CN=C3C(=N2)NC4=CC=NC=C4)F
Summary of the method: as §1

[3] = compound: C1=CC(=CC=C1C2=NC3=C(N2)C=C(C=C3)C(=O)N)OC4=CC=C(C=C4)Cl
Summary of the method: as §1

[4] = compound: C1=CC2=C(C=CC(=C2)/C=C\3/C(=O)NC(=NCC4=CC=CS4)S3)N=C1
Summary of the method: as §1

[5] = compound: C1=CC2=NC=CN=C2C=C1/C=C/3\C(=O)NC(=O)S3
Summary of the method: as §1

[6] = compound: C1=CC=C(C=C1)C2=NC(=C(N2)C3=CC=NC=C3)C4=CC(=C(C=C4)Cl)O
Summary of the method: as §1

[7] = compound: C1=CC=C2C(=C1)C3=NNC4=CC=CC(=C43)C2=O
Summary of the method: as §1

[8] = compound: C1CCN(C1)C(=O)NC2=CC=CC(=C2)NC3=NC=C(C(=N3)NCCC4=CN=CN4)Br
Summary of the method: as §1

[9] = compound: C1CN(CCC1(CC2=CC=C(C=C2)Cl)N)C3=NC=NC4=C3C=CN4
Summary of the method: as §1

Measured: log2 fold change

ACAP2 (UniProt Q15057)
inactive: erlotinib -0.002 | [1] 0.054 | [2] 0.062 | [3] -0.05 | [4] 0.056 | [5] 0.037 | [6] -0.032 | [7] -0.012 | [8] -0.042 | [9] -0.013

ACADVL isoform 3 (UniProt P49748)
inactive: erlotinib 0.008 | [1] 0.015 | [2] 0.035 | [4] 0.023 | [5] 0.055 | [6] 0.027 | [7] 0.155 | [8] 0.025 | [9] 0.043
active: [3] 0.291

AARS2 (UniProt Q5JTZ9)
inactive: erlotinib 0.148 | [1] -0.035 | [2] 0.058 | [3] -0.019 | [4] 0.083 | [5] 0.011 | [6] 0.025 | [7] 0.021 | [8] -0.003 | [9] 0.021

AAK1 (UniProt Q2M2I8)
inactive: erlotinib -0.028 | [1] -0.055 | [2] 0.019 | [3] 0.005 | [4] 0.339 | [5] 0.033 | [6] 0.073 | [7] 0.319 | [8] 0.265 | [9] -0.085

ACADSB (UniProt P45954)
inactive: erlotinib -0.039 | [1] 0.075 | [2] 0.043 | [3] 0.001 | [4] 0.047 | [5] 0.001 | [6] 0.058 | [7] 0.043 | [8] 0.034 | [9] 0.045

ACLY (UniProt P53396)
inactive: erlotinib -0.006 | [1] 0.024 | [2] 0.083 | [3] -0.02 | [4] 0 | [5] -0.147 | [6] 0.031 | [7] -0.008 | [8] 0.017 | [9] 0.018

ACOT7 isoform 7 (UniProt O00154)
inactive: erlotinib 0.001 | [1] 0.038 | [2] 0.065 | [3] 0.004 | [4] -0.001 | [5] 0.028 | [6] 0.011 | [7] -0.015 | [8] -0.03 | [9] 0.077

ACAT2 (UniProt Q9BWD1)
inactive: erlotinib 0.019 | [1] -0.002 | [2] 0.018 | [3] -0.007 | [4] -0.032 | [5] -0.041 | [6] 0.041 | [7] 0.014 | [8] 0.024 | [9] 0.048

Quoted from the entries so far (five entries):
AAK1 (UniProt Q2M2I8)
inactive: erlotinib -0.028 | [1] -0.055 | [2] 0.019 | [3] 0.005 | [4] 0.339 | [5] 0.033 | [6] 0.073 | [7] 0.319 | [8] 0.265 | [9] -0.085

ACADSB (UniProt P45954)
inactive: erlotinib -0.039 | [1] 0.075 | [2] 0.043 | [3] 0.001 | [4] 0.047 | [5] 0.001 | [6] 0.058 | [7] 0.043 | [8] 0.034 | [9] 0.045

ACLY (UniProt P53396)
inactive: erlotinib -0.006 | [1] 0.024 | [2] 0.083 | [3] -0.02 | [4] 0 | [5] -0.147 | [6] 0.031 | [7] -0.008 | [8] 0.017 | [9] 0.018

ACOT7 isoform 7 (UniProt O00154)
inactive: erlotinib 0.001 | [1] 0.038 | [2] 0.065 | [3] 0.004 | [4] -0.001 | [5] 0.028 | [6] 0.011 | [7] -0.015 | [8] -0.03 | [9] 0.077

ACAT2 (UniProt Q9BWD1)
inactive: erlotinib 0.019 | [1] -0.002 | [2] 0.018 | [3] -0.007 | [4] -0.032 | [5] -0.041 | [6] 0.041 | [7] 0.014 | [8] 0.024 | [9] 0.048

(continued)

ABHD13 (UniProt Q7L211)
inactive: erlotinib 0.051 | [1] -0.072 | [2] -0.068 | [3] 0.287 | [4] 0.198 | [5] 0.176 | [6] 0.028 | [7] -0.031 | [8] -0.139 | [9] -0.053

ACAT1 (UniProt P24752)
inactive: erlotinib -0.059 | [1] -0.016 | [2] 0.053 | [3] -0.047 | [4] 0.015 | [5] -0.058 | [6] -0.049 | [7] -0.011 | [8] -0.04 | [9] -0.007

ACAA2 (UniProt P42765)
inactive: erlotinib 0.002 | [1] 0.015 | [2] 0.072 | [3] 0 | [4] -0.017 | [5] 0.003 | [6] -0.025 | [7] 0.006 | [8] -0.008 | [9] 0.022

ACTR1A (UniProt P61163)
inactive: erlotinib -0.037 | [1] 0.01 | [2] 0.012 | [3] -0.002 | [4] 0.017 | [5] 0.021 | [6] 0.007 | [7] -0.008 | [8] 0.034 | [9] 0.002

ACTA1 (UniProt P68133)
inactive: erlotinib 0.01 | [1] -0.029 | [2] 0.027 | [3] 0.001 | [4] -0.011 | [5] -0.015 | [6] -0.052 | [7] 0.011 | [8] 0.025 | [9] 0.064

ABCA3 (UniProt Q99758)
inactive: erlotinib 0.011 | [1] 0.087 | [2] 0.002 | [3] 0.057 | [4] -0.027 | [5] -0.056 | [6] 0.01 | [7] 0.031 | [8] 0.094 | [9] -0.034

AAAS (UniProt Q9NRG9)
inactive: erlotinib 0.015 | [1] 0.076 | [2] 0.074 | [3] -0.004 | [4] 0 | [5] -0.01 | [6] 0.045 | [7] -0.111 | [8] -0.05 | [9] 0.038

ACTN1 (UniProt P12814)
inactive: erlotinib 0.014 | [1] 0.006 | [2] 0.034 | [3] 0.006 | [4] 0.013 | [5] 0.033 | [6] -0.009 | [7] -0.03 | [8] -0.028 | [9] 0.015

ACTB, A0A2R8YEA7
inactive: erlotinib 0.289 | [1] 0.034 | [3] -0.01 | [4] -0.019 | [5] 0.174 | [6] 0.004 | [7] 0.024 | [8] -0.203 | [9] 0.209

ABHD16A (UniProt O95870)
inactive: erlotinib -0.036 | [1] 0.02 | [2] -0.048 | [3] 0.161 | [4] 0.208 | [5] -0.094 | [6] 0.036 | [7] 0.009 | [8] -0.005 | [9] 0.023

ADA (UniProt P00813)
inactive: erlotinib 0.016 | [1] -0.035 | [2] 0.05 | [3] 0.032 | [4] 0.056 | [5] 0.051 | [6] -0.065 | [7] -0.024 | [8] 0.07 | [9] 0.033

ABI1 (UniProt Q8IZP0)
inactive: erlotinib -0.041 | [1] 0.153 | [2] 0.024 | [3] 0.046 | [4] -0.02 | [5] 0.048 | [6] -0.019 | [7] 0.025 | [8] -0.082 | [9] 0.006

ABHD12 isoform 2 (UniProt Q8N2K0)
inactive: erlotinib 0.009 | [1] -0.027 | [2] -0.078 | [3] 0.068 | [4] 0 | [5] 0.03 | [6] -0.022 | [7] -0.045 | [8] -0.037 | [9] 0.006

ABCF3 (UniProt Q9NUQ8)
inactive: erlotinib 0.126 | [1] 0.033 | [2] -0.124 | [3] 0.007 | [4] 0.037 | [5] -0.026 | [6] -0.093 | [7] 0.128 | [8] 0.016 | [9] 0.063

ACTB, A0A2R8Y793
inactive: erlotinib 0.015 | [1] -0.015 | [2] 0.074 | [3] 0.062 | [4] -0.02 | [5] -0.086 | [6] 0.034 | [7] 0.026 | [8] -0.006 | [9] 0.065

ACBD5 (UniProt Q5T8D3)
inactive: erlotinib 0.232 | [1] 0.216 | [2] -0.228 | [3] -0.101 | [4] -0.047 | [6] -0.046 | [7] -0.185 | [8] -0.003 | [9] 0.059

ACOX3 (UniProt O15254)
inactive: erlotinib 0.158 | [1] -0.157 | [2] -0.068 | [3] 0.007 | [4] -0.122 | [5] -0.026 | [7] 0.071 | [8] 0.153 | [9] 0.054

ACO2 (UniProt Q99798)
inactive: erlotinib 0.049 | [1] 0.008 | [2] 0.105 | [3] -0.014 | [4] 0.077 | [6] 0.036 | [7] 0.009 | [8] 0.018 | [9] 0.015
active: [5] -0.244

ACBD6 (UniProt Q9BR61)
inactive: erlotinib 0.056 | [1] -0.031 | [2] 0.134 | [3] 0.108 | [4] 0.007 | [5] 0.011 | [6] -0.078 | [7] 0.073 | [8] -0.186 | [9] -0.216

ABRAXAS1 (UniProt Q6UWZ7)
inactive: erlotinib -0.081 | [1] -0.088 | [2] -0.015 | [3] 0.06 | [4] -0.248 | [5] -0.063 | [6] 0.061 | [7] -0.07 | [8] -0.007 | [9] -0.142
